Test results: patent US20250320297A1
No constants are given. Whether binding was seen depends on the method and setting. Some entries that bind do so weakly or less than the wild type. Tags and fused reporters may be left off the sequences shown.

Biological target: Cyno PDL1-His (recombinant cynomolgus PDL1 with C-terminal poly histidine tag, Acro Biosystems) (cynomolgus) (UniProt G7PSE7)
Test: BLI (Octet)

binding: binds
B1: 10A4 VHH-Fc (chimeric bivalent antibody) (antibody, human IgG1, V domains shown)
VH: QVKLEESGGGLVMAGGSLRLSCAASGGPFMSYAMGWFRQAPGKEREFVAAIRWNGISTFYADSVKGRFTVSRDNGKNMAFLQMNSLKPEDTAVYYCAAAQTIVTVPENYEYHYWGQGTQVTVSS
